Measured values taken from the supplement of paper PMC10849652.
The other results are listed elsewhere or left out.

Amino acid sequences for entries named in this document (tags omitted). A change or cut given only in a name is not applied to a line headed by its entry.
UniProt Q96GZ6: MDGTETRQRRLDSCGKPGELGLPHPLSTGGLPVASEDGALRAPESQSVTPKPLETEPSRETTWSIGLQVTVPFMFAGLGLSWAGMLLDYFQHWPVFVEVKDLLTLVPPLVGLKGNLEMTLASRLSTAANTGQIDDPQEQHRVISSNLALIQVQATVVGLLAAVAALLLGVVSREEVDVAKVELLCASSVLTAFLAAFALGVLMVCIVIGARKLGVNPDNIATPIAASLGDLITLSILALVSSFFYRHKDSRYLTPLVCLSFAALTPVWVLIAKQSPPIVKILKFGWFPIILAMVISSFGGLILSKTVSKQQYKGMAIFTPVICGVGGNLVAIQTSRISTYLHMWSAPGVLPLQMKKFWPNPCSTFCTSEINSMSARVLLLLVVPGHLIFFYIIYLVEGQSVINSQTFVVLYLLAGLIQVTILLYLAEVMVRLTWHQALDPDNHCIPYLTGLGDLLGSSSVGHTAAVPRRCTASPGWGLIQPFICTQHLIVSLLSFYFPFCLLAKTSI
UniProt Q7Z769: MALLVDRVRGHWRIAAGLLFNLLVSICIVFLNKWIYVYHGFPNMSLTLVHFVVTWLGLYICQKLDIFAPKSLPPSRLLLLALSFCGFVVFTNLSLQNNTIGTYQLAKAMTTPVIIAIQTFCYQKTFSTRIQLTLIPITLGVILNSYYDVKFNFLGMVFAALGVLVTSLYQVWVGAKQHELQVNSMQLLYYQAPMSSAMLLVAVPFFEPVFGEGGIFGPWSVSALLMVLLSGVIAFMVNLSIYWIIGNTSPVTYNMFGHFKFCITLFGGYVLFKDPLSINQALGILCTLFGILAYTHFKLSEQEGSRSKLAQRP
UniProt Q8N755: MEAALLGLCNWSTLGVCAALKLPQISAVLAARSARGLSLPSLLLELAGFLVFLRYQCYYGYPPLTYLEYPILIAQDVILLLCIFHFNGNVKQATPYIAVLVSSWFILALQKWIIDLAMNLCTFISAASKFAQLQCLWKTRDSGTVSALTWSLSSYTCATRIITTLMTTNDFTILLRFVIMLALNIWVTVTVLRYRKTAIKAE
UniProt Q96A46: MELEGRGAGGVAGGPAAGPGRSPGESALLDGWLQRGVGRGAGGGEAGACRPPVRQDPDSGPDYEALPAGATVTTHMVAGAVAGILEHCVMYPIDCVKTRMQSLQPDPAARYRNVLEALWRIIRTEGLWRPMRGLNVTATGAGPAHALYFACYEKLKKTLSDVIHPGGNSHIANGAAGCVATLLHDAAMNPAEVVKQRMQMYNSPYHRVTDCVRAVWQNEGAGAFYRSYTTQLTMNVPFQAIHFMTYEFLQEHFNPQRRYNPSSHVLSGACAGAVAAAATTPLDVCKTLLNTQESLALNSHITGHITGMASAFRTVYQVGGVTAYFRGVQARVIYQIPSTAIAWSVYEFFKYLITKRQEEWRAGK
UniProt Q9NQQ7: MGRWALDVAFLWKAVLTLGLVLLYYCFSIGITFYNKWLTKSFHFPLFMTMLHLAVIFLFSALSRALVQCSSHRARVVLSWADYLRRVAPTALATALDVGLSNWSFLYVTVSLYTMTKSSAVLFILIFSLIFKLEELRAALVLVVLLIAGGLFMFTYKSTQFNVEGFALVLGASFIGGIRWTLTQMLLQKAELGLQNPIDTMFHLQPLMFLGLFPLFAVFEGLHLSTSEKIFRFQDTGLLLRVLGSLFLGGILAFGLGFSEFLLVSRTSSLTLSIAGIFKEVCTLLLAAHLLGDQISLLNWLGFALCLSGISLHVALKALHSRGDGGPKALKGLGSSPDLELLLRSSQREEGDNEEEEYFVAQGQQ
UniProt F5GZS6: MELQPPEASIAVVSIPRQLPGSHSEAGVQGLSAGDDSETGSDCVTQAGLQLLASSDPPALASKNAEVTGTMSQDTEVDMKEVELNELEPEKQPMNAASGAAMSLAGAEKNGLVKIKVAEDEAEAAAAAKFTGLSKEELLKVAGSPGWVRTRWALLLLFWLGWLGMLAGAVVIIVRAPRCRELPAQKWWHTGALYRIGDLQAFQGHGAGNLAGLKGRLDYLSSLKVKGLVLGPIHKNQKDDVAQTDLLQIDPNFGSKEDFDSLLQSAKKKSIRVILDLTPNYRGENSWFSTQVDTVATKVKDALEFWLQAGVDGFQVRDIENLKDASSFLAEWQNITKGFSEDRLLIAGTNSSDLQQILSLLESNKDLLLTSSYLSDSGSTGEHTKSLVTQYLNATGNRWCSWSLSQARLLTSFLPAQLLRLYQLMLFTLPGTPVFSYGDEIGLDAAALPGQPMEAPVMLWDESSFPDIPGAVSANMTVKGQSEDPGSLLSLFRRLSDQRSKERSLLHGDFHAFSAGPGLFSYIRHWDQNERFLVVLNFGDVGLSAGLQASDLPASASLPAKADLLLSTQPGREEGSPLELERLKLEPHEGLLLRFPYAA
UniProt A1A5C7: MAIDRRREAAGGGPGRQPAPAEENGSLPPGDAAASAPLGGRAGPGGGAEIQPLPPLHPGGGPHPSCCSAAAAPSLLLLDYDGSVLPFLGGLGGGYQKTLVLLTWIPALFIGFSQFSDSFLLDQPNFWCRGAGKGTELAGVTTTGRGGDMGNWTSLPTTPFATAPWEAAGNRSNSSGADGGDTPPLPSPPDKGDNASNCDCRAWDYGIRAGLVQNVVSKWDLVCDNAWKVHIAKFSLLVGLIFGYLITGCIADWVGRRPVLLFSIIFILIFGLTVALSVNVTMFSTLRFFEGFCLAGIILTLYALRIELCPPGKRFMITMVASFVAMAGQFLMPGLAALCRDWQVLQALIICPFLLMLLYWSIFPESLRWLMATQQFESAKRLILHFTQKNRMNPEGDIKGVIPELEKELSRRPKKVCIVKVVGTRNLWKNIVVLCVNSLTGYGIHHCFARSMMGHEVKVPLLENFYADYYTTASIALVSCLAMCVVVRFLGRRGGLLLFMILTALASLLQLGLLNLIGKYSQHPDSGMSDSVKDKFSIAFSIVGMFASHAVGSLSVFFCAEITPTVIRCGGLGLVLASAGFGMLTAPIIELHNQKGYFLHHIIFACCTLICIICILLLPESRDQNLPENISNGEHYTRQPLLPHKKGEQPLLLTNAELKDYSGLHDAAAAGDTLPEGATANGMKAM
UniProt Q6YBV0: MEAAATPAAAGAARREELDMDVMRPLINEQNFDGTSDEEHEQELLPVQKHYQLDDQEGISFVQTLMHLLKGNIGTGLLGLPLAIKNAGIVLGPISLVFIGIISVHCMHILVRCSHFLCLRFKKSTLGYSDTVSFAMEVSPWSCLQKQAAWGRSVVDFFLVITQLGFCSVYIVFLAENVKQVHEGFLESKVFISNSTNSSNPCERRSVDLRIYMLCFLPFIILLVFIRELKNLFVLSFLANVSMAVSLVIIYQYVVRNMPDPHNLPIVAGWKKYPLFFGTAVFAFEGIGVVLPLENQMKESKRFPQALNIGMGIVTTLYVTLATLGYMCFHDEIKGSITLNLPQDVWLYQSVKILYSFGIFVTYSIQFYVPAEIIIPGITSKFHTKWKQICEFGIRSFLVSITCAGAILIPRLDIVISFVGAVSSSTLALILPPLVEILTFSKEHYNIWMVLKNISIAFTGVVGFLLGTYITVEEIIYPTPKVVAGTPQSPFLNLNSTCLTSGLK
UniProt P43003, whole entry, looked up: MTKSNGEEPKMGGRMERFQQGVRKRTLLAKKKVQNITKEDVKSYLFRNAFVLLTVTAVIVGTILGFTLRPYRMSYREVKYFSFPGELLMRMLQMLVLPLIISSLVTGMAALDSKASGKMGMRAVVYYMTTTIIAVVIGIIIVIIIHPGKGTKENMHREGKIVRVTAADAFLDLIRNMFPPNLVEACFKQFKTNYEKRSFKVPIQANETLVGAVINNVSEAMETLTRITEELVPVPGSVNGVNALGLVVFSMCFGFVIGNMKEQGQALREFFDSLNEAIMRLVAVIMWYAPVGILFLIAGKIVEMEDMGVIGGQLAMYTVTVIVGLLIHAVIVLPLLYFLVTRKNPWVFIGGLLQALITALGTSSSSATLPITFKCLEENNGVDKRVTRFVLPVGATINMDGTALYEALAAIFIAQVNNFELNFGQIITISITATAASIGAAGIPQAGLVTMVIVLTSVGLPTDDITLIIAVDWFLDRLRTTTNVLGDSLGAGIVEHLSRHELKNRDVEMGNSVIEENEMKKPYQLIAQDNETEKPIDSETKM
UniProt O15431: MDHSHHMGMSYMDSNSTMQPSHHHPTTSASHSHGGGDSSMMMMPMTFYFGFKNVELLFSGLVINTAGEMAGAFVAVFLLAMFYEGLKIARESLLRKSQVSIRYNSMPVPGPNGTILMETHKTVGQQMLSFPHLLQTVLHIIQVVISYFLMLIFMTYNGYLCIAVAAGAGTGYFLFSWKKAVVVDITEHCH
UniProt Q9Y2P4: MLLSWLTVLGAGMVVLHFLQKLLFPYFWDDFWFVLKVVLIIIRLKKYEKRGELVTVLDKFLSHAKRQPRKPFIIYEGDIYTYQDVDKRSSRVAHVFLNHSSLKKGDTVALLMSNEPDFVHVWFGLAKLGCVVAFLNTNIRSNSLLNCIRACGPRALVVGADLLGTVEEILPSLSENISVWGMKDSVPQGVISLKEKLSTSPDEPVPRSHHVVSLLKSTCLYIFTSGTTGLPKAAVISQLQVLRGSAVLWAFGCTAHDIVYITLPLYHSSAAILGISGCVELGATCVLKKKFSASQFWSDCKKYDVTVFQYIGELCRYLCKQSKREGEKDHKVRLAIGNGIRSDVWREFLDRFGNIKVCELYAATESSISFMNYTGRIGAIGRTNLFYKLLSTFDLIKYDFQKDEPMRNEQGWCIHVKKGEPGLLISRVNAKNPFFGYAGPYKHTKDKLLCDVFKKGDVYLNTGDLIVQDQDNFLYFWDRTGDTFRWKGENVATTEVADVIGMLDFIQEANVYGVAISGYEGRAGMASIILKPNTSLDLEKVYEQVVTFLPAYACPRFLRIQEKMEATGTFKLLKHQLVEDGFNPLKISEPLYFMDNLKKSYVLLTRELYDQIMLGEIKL
UniProt Q9BRV3: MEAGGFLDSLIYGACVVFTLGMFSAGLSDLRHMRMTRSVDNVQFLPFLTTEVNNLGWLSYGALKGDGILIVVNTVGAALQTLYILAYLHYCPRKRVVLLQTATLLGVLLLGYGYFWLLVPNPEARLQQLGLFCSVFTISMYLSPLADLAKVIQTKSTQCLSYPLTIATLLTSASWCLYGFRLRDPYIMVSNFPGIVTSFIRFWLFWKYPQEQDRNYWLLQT
UniProt Q9H015: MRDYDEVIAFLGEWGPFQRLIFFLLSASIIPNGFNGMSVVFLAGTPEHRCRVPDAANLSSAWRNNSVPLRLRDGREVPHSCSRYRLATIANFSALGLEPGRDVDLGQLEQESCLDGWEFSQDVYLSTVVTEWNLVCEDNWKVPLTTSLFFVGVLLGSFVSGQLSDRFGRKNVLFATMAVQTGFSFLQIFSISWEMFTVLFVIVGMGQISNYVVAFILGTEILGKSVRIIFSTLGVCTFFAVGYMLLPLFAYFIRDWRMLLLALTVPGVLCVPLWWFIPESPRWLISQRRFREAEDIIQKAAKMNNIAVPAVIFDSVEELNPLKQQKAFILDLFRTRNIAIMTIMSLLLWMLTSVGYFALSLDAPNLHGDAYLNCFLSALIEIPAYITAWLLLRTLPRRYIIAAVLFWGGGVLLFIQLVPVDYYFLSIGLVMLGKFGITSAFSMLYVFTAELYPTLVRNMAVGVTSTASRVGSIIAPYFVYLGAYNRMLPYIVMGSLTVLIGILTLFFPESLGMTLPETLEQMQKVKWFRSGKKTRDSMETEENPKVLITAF
UniProt Q0GE19: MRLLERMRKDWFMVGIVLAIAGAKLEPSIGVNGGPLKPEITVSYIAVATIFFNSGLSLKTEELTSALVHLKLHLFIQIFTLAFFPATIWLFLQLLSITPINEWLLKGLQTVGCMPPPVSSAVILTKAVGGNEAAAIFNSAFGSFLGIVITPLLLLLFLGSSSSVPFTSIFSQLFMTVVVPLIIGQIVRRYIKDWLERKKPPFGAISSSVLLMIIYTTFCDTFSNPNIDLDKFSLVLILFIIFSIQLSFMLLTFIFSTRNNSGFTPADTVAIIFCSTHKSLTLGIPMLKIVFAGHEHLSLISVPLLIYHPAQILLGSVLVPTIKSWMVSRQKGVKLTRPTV
UniProt Q8N697: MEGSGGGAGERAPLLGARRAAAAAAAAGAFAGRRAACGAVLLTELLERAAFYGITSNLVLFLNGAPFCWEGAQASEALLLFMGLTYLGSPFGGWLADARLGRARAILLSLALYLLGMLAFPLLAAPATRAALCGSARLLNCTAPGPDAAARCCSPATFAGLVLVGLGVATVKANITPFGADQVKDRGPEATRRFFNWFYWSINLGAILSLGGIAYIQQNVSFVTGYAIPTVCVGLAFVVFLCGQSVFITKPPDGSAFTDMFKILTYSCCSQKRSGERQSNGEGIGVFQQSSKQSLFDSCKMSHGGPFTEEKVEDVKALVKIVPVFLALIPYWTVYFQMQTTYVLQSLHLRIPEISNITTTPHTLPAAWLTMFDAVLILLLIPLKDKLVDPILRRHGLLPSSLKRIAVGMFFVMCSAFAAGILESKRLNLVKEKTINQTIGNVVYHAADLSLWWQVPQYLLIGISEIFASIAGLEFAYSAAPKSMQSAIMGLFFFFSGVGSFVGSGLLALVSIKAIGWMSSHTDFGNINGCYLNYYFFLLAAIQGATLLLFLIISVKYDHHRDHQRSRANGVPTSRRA

These targets were tested with CC1=C(C=C(C=C1)NC(=O)C2=CC(=CC=C2)C(C)(C)C#N)NC3=CC4=C(C=C3)N=CN(C4=O)C (assay: log2 fold change, soluble protein after heating vs DMSO (PISA); higher = thermal stabilisation; K562 cells, 10 uM, 30 min; active = over 0.2 and 3.5 SD of the protein, either way, in both replicates (recomputed)).
In short: (§1)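 Soluble protein was defined as the supernatant after 21,000xg for 90 min. It came from K562 cells at 2×10^6 cells/mL given 10 μM compound for 30 min, heated in aliquots for 3 min across 48°C-58°C, pooled, and extracted in PBS with 0.5% NP-40 at 4°C, and was quantified by TMTpro 16plex LC-MS/MS with equalised channel sums. Thermal stability against control samples, from duplicates, is reported as log2 fold change.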
In the case of SLC3A2 (UniProt F5H867), the log2 fold change is reported as inactive: -0.127.
For SLC41A3 isoform 9 (UniProt Q96GZ6), the log2 fold change was inactive: -0.026.
In the case of SLC35E3 (UniProt Q7Z769), the log2 fold change is reported as inactive: 0.402.
For SLC66A3 (UniProt Q8N755), the log2 fold change was inactive: 0.171.
For SLC23A2 (UniProt Q9UGH3), the log2 fold change was inactive: -0.049.
For SLC25A28 (UniProt Q96A46), the log2 fold change was inactive: -0.019.
For SLC35B4 (UniProt Q969S0), the log2 fold change was inactive: 0.018.

What follows are targets tested with CC1=C(C=C(C=C1)NC(=O)C2=CC(=CC=C2)N(C)C)NC(=O)C3=CC=C(C=C3)O in the same assay as above.
In short: as §1
SLC35C2 isoform 3 (UniProt Q9NQQ7) was tested, and the log2 fold change was inactive: -0.102.
With SLC3A2 (UniProt F5GZS6) the log2 fold change was inactive: 0.093.
With SLC22A23 (UniProt A1A5C7) the log2 fold change was inactive: -0.184.
With SLC35C1 (UniProt Q96A29) the log2 fold change was inactive: 0.05.
SLC36A4 (UniProt Q6YBV0) was tested, and the log2 fold change was inactive: -0.04.
In the case of SLC25A29 (UniProt Q8N8R3), the log2 fold change is reported as inactive: -0.07.
With SLC1A3 (UniProt P43003) the log2 fold change was inactive: -0.047.
With SLC31A1 (UniProt O15431) the log2 fold change was inactive: -0.112.
With SLC27A6 (UniProt Q9Y2P4) the log2 fold change was inactive: -0.02.
SLC50A1 (UniProt Q9BRV3) was tested, and the log2 fold change was inactive: 0.012.
For SLC25A14 isoform 3 (UniProt O95258), the log2 fold change was inactive: 0.003.
With SLC22A4 (UniProt Q9H015) the log2 fold change was inactive: 0.193.
With SLC10A7 isoform 1 (UniProt Q0GE19) the log2 fold change was inactive: 0.11.
In the case of SLC15A4 (UniProt Q8N697), the log2 fold change is reported as inactive: -0.014.
In the case of SLC35E1 (UniProt Q96K37), the log2 fold change is reported as inactive: -0.052.

Each target was assayed with CC1=CC=C(C=C1)SC2=C3C=C(SC3=CN=C2)C(=O)N in the same assay as above.
In short: as §1
In the case of SLC3A2 (UniProt F5GZS6), the log2 fold change is reported as inactive: -0.07.
In the case of SLC22A23 (UniProt A1A5C7), the log2 fold change is reported as inactive: 0.075.
In the case of SLC35D1 (UniProt Q9NTN3), the log2 fold change is reported as inactive: -0.052.
For SLC3A2 (UniProt F5H867), the log2 fold change was inactive: -0.158.
SLC35C1 (UniProt Q96A29) was tested, and the log2 fold change was inactive: -0.074.
For SLC22A5 isoform 3 (UniProt O76082), the log2 fold change was inactive: -0.075.
SLC25A29 (UniProt Q8N8R3) was tested, and the log2 fold change was inactive: 0.07.
For SLC1A3 (UniProt P43003), the log2 fold change was inactive: 0.043.
In the case of SLC25A35 (UniProt Q3KQZ1), the log2 fold change is reported as inactive: -0.188.
For SLC31A1 (UniProt O15431), the log2 fold change was inactive: 0.
For SLC35E3 (UniProt Q7Z769), the log2 fold change was inactive: 0.086.
With SLC50A1 (UniProt Q9BRV3) the log2 fold change was inactive: 0.03.
For SLC6A19 (UniProt Q695T7), the log2 fold change was inactive: -0.145.
In the case of SLC25A14 isoform 3 (UniProt O95258), the log2 fold change is reported as inactive: -0.016.
SLC22A4 (UniProt Q9H015) was tested, and the log2 fold change was inactive: -0.154.
For SLC10A7 isoform 1 (UniProt Q0GE19), the log2 fold change was inactive: 0.046.
In the case of SLC25A28 (UniProt Q96A46), the log2 fold change is reported as inactive: -0.17.
In the case of SLC15A4 (UniProt Q8N697), the log2 fold change is reported as inactive: 0.084.
In the case of SLC35E1 (UniProt Q96K37), the log2 fold change is reported as inactive: 0.047.
